In all, about 3,200 compounds were measured (“TSA(with NAD+) / Primary screening (TSA) / delta Tm (K)”: median about -0.04, highest 2% from about 0.37 on). This is one part of the list.
These molecules were tested against NAD-dependent deacetylase Sirtuin 1 (human, UniProt Q96EB6) (assay: primary screen, delta tm). Conditions: 10 µM.
Set-up: single well (n = 1, as 'the same TSA')

Protein sequences, listed by entry. Tags and fused reporters are not part of them. Residues count along the entry.
UniProt Q96EB6, 2-747 limits assumed: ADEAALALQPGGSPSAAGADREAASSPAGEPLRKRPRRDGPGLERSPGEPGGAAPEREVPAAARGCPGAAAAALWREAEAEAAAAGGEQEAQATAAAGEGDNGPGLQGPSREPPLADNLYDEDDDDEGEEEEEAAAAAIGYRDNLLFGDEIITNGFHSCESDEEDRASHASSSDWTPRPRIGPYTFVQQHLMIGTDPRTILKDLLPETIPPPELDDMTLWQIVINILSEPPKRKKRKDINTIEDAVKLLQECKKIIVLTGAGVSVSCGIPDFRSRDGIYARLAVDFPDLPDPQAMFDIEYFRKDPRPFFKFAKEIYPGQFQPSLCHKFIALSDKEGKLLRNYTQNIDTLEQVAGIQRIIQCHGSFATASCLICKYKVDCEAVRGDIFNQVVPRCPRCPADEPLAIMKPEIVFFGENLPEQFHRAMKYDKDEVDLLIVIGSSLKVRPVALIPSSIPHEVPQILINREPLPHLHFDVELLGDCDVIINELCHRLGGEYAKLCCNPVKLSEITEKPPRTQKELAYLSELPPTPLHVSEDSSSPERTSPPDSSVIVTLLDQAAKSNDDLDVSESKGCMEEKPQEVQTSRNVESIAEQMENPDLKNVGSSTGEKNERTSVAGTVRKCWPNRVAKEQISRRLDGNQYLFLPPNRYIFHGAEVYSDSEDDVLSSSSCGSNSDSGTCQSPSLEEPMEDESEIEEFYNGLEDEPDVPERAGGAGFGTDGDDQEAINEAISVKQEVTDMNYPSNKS

Row | SMILES | TSA(with NAD+) / Primary screening (TSA) / delta Tm (K)
1 | CCC(OC)C(=O)O (stereo not drawn) | -0.03 K
2 | COc1ccc(C(=O)Nc2ccccc2Oc2ccccc2)cc1OC | -0.09 K
3 | CCc1cccc(C)c1NC(=O)c1cccc(S(=O)(=O)N(C)c2ccc(C)cc2)c1 | -0.11 K
4 | N#Cc1cn(CCCOc2ccccc2)c2ccc(Cl)cc2c1=O | -0.04 K
5 | Cn1c(Cl)c(C=O)c2cc(C=O)ccc21 | -0.16 K
6 | Cc1ccc(N(C)S(=O)(=O)c2cccc(C(=O)Nc3c(C)cc(C)cc3Cl)c2)cc1 | 0.05 K
7 | CNc1[nH]cnc2ncnc1-2 | -0.01 K
8 | Cc1ccc(N(C)S(=O)(=O)c2cccc(C(=O)Oc3ccc4c(C)cc(=O)oc4c3)c2)cc1 | 0.16 K
9 | NCc1nc2cc(C(=O)O)ccc2[nH]1 | 0.07 K
10 | Cc1ccc2c(Cn3nnc(-c4ccccc4)n3)cc(=O)oc2c1C | -0.02 K
11 | CC(CN)CCO (stereo not drawn) | -0.33 K
12 | CCC(C)C(O)CN (stereo not drawn) | -0.05 K
13 | CCOc1ccc(C(=O)C2=C(O)C(=O)N(CCN3CCOCC3)C2c2ccc(OCC)cc2)cc1 (stereo not drawn) | -0.24 K
14 | CCCOc1ccc(C2C(C(=O)c3sc(C)nc3C)=C(O)C(=O)N2CCCN2CCOCC2)cc1 (stereo not drawn) | 0.05 K
15 | CCc1nc2ccccc2n1CC(=O)N1CC(C)OCC1C (stereo not drawn) | -0.01 K
16 | N#CCCn1cc(C(=O)CN2CCN(C(c3ccc(F)cc3)c3ccc(F)cc3)CC2)c2ccccc21 | 0.21 K
17 | NS(=O)(=O)c1ccc(Br)c(C(=O)Nc2ccc(NC(=O)CN3CCOCC3)cc2)c1 | -0.09 K
18 | CN(Cc1ccc(C(N)=O)cc1)S(=O)(=O)c1ccc2c(c1)CCC2 | 0.15 K
19 | CCOc1ccc(C2C(C(=O)c3cc4ccccc4o3)=C(O)C(=O)N2CCCN2CCOCC2)cc1 (stereo not drawn) | -0.18 K
20 | COc1ccccc1C1C(C(=O)c2ccc3c(c2)OCCO3)=C(O)C(=O)N1CCCN1CCOCC1 (stereo not drawn) | -0.16 K
21 | NC(=O)c1cc(NC(=O)c2ccc(-c3ccccc3F)o2)ccc1Cl | -0.13 K
22 | COc1cc(CN(C)C(=O)Cc2c(F)cccc2Cl)ccc1OCc1ccccc1 | -0.21 K
23 | COc1cc(C(C)=O)ccc1COc1ccc(C(=O)OCC(N)=O)cc1OC | 0.15 K
24 | CC(NC(=O)CNC(=O)CNC(=O)c1cccs1)c1ccccn1 (stereo not drawn) | 0.01 K

Row | SMILES | TSA(with NAD+) / Primary screening (TSA) / delta Tm (K)
25 | Cc1cc(/N=C/c2c(O)ccc3ccccc23)ccc1I | 0.07 K
26 | COc1cc(CC(=O)N2CC(C(N)=O)c3ccccc32)ccc1C (stereo not drawn) | 0.16 K
27 | Cc1c(C(=O)CSc2nnc(NCc3ccco3)s2)oc2ccccc12 | 0.05 K
28 | CN(C)C(=O)c1ccccc1NC(=O)NC(C)(C)c1ccc(F)cc1 | -0.22 K
29 | O=C1NC(=S)NC(=O)C1=Cc1ccc(-c2ccccc2)s1 | -0.06 K
30 | Cn1c(SCCc2ccccc2)nc2ccsc2c1=O | -0.19 K
31 | O=C(COC(=O)C1=COCCO1)Nc1cccc2ccccc12 | 0.09 K
32 | Cn1ccnc1C(NC(=O)c1ccc(O)c(Cl)c1)c1ccccc1F (stereo not drawn) | -0.23 K
33 | CCN(CC)c1ccc(NC(=O)CN2CCCC2C(=O)N(C)C)cc1 (stereo not drawn) | -0.13 K
34 | Cc1ccc(N(C)S(=O)(=O)c2cccc(C(=O)Oc3ccc4oc5ccccc5c4c3)c2)cc1 | 0.06 K
35 | Cc1c(C=C2C(=O)NC(=S)NC2=O)cnn1-c1ccccc1 | -0.22 K
36 | Cc1nn(-c2cccc(C(F)(F)F)c2)c(C)c1C(=O)C(=O)N1CCNC(=O)C1 | -0.24 K
37 | CC(C)Oc1ccc(C2C(C(=O)c3ccco3)=C(O)C(=O)N2CCCN2CCOCC2)cc1 (stereo not drawn) | 0.03 K
38 | C=CCOCCN | -0.02 K
39 | CC(C)C(NC(=O)c1cnsn1)c1cccs1 (stereo not drawn) | -0.04 K
40 | CC(OC(=O)C1CC(=O)N(Cc2ccco2)C1)C(=O)Nc1ccc(C(N)=O)cc1 (stereo not drawn) | -0.13 K
41 | O=C(C1=C(O)C(=O)N(CCCN2CCOCC2)C1c1cccc([N+](=O)[O-])c1)c1ccco1 (stereo not drawn) | -0.13 K
42 | O=C(OCc1cccc2ccccc12)C1CCCCN1c1ncccn1 (stereo not drawn) | -0.03 K
43 | NCCC[C@H](N)C(=O)O | 0.13 K
44 | CN(c1ccc(F)cc1)S(=O)(=O)c1cccc(-c2nnnn2C)c1 | -0.09 K
45 | CC(=O)c1cccc(NC(=O)c2ccc(CCNS(C)(=O)=O)s2)c1 | -0.09 K
46 | NC(=O)c1ccc(COC(=O)c2ccccc2-c2ncc(-c3ccccc3)o2)cc1 | 0.03 K
47 | CCCN(CC)CCN | -0.11 K
48 | Cc1c(-c2ccccc2)oc2c(C(=O)OCC(=O)NC34CC5CC(CC(C5)C3)C4)cccc2c1=O | -0.02 K

Row | SMILES | TSA(with NAD+) / Primary screening (TSA) / delta Tm (K)
49 | COc1ccc(CNCc2c[nH]nc2-c2ccc(C)cc2)cc1OC | -0.13 K
50 | NC(=S)c1ccc(C(=O)NCc2ccnc(OCC(F)(F)F)c2)cc1 | -0.11 K
51 | COc1ccc(NC(=O)COC(=O)c2ccccc2SCC(=O)NC23CC4CC(CC(C4)C2)C3)cc1OC | -0.08 K
52 | COc1ccc(C(=O)C2=C(O)C(=O)N(CCCN3CCOCC3)C2c2ccccc2F)cc1 (stereo not drawn) | -0.05 K
53 | COc1ccc(N(C)S(=O)(=O)c2cccc(C(=O)OCCCC(=O)c3ccc(F)cc3)c2)cc1 | 0.17 K
54 | O=C(CC(=O)N/N=C/c1ccc(O)cc1O)N/N=C/c1ccc(O)cc1O | 0.29 K
55 | CCOCC(C)N (stereo not drawn) | -0.11 K
56 | CCCOc1ccc(C(=O)C2=C(O)C(=O)N(CCCN3CCOCC3)C2c2ccccn2)cc1 (stereo not drawn) | -0.12 K
57 | Cc1cccc(NC(=O)CN2CCN(C(=O)c3ccccc3C(=O)c3ccccc3)CC2)c1C | -0.12 K
58 | Cn1c(-c2ccccc2)c(C(=O)O)c2ccccc21 | 0.07 K
59 | Cc1cccc(N/C=C(/C(=O)c2ccccc2)C(=O)C(F)(F)F)c1 | 0.06 K
60 | NC(=O)C1CCN(CCCNC(=O)Nc2cccc(N3CCNC3=O)c2)CC1 | -0.15 K
61 | O=C(Nc1cccc(S(=O)(=O)N2CCOCC2)c1)c1cccc(S(=O)(=O)N2CCc3ccccc32)c1 | 0.41 K
62 | Cc1oc2nc[nH]c(=O)c2c1C(=O)OC(C)C(=O)N1CCOCC1 (stereo not drawn) | -0.06 K
63 | OC(COc1c(Cl)cccc1Cl)Cn1nnc(-c2cccnc2)n1 (stereo not drawn) | -0.18 K
64 | CN(c1ccccc1)S(=O)(=O)c1cccc(/N=C2/C(=O)Nc3ccc(Br)cc32)c1 | -0.28 K
65 | COc1ccc(C(=O)O)cc1S(=O)(=O)Nc1cc(C(N)=O)cc(C(N)=O)c1 | 0.01 K
66 | COc1ccc(C)cc1-n1ccc(C(=O)N2CCCc3c(C(N)=O)cccc32)n1 | 0.02 K
67 | CC(C)OCc1ccc(C(=O)Nc2ccc(N3CCN(Cc4ccccc4)CC3)cc2)cc1 | 0.25 K
68 | Cc1cc(C=C2C(=O)NC(=S)NC2=O)c(C)n1-c1cccc(C(F)(F)F)c1 | -0.73 K
69 | O=C1NCCN(C(=O)c2ccon2)C1c1ccc(C(F)(F)F)cc1 (stereo not drawn) | -0.03 K
70 | CCc1ccc(-c2nn(-c3ccccc3)cc2C=C2C(=O)NC(=O)NC2=O)cc1 | -0.38 K
71 | CNC(=O)C(C)CN(C)c1ccc(C(F)(F)F)c(C#N)c1 (stereo not drawn) | -0.21 K
72 | O=C(Nc1ccccc1)C1CCN(C(=O)c2cc(-c3ccc(O)cc3)nc3ccccc23)CC1 | 0.22 K

Row | SMILES | TSA(with NAD+) / Primary screening (TSA) / delta Tm (K)
73 | CC(C(=O)Nc1ccc(C(N)=O)cc1)N(C)Cc1ccccc1N1CCCCC1 (stereo not drawn) | 0.05 K
74 | CC(N)c1nnn[nH]1 (stereo not drawn) | -0.05 K
75 | O=C(CCc1nc2ccccc2o1)N1CCN(C(c2ccccc2)c2ccccc2)CC1 | -0.01 K
76 | COc1cc(NC(=O)C2CCCC2)c(C(=O)OCC(=O)N(Cc2ccccc2)C(C)(C)C)cc1OC | -0.09 K
77 | Cc1cc(CC(=O)NC(CC(C)C)C(=O)Nc2cc[nH]n2)no1 (stereo not drawn) | 0.05 K
78 | COc1ccc(C(=O)C2=C(O)C(=O)N(CCCN3CCOCC3)C2c2ccccc2)cc1OC (stereo not drawn) | -0.14 K
79 | CCOc1ccc(CCNC(=O)COC(=O)CNC(=O)C23CC4CC(CC(C4)C2)C3)cc1OCC | -0.12 K
80 | CC1CCc2[nH]c3ccc(C(=O)OCC(=O)NC(=O)NC45CC6CC(CC(C6)C4)C5)cc3c2C1 (stereo not drawn) | 0.31 K
81 | COc1ccc(CCC(=O)Nc2cc(S(=O)(=O)N3CCCCC3)ccc2OC(C)C)cc1OC | -0.05 K
82 | COc1ccccc1NS(=O)(=O)c1ccc(N2CCOCC2)c(NC(=S)NC(=O)C23CC4CC(CC(C4)C2)C3)c1 | -0.06 K
83 | Cc1ccc(NC(=O)C2=COCCO2)cc1S(=O)(=O)N1CCOCC1 | -0.04 K
84 | NNC(=O)Cc1ccc(Cl)cc1 | -0.05 K
85 | CCCC(C)C(=O)O (stereo not drawn) | -0.06 K
86 | NC(=O)c1cccc(CNCc2ccsc2)c1 | 0.05 K
87 | COc1ccc(CNCc2ccc(C(N)=O)cc2)cc1 | 0.01 K
88 | O=C(CCn1[nH]c(=O)ccc1=O)Nc1ccc(Cl)cc1F | -0.04 K
89 | O=C(c1cccc(Cl)c1)N1CCc2ccccc21 | -0.04 K
90 | NC(=O)c1ccc(COC(=O)c2cc3c(ccc4ccccc43)[nH]2)cc1 | 0.09 K
91 | CCc1noc(CNc2cc(C(N)=O)ccc2OC)n1 | -0.03 K
92 | CCOc1ccc(C2C(C(=O)c3ccc(C)o3)=C(O)C(=O)N2CCCN2CCOCC2)cc1OC (stereo not drawn) | -0.04 K
93 | C[C@@H](N)CO | -0.11 K

Excerpt: compounds 40–55
Row | SMILES | TSA(with NAD+) / Primary screening (TSA) / delta Tm (K)
40 | CC(OC(=O)C1CC(=O)N(Cc2ccco2)C1)C(=O)Nc1ccc(C(N)=O)cc1 (stereo not drawn) | -0.13 K
41 | O=C(C1=C(O)C(=O)N(CCCN2CCOCC2)C1c1cccc([N+](=O)[O-])c1)c1ccco1 (stereo not drawn) | -0.13 K
42 | O=C(OCc1cccc2ccccc12)C1CCCCN1c1ncccn1 (stereo not drawn) | -0.03 K
43 | NCCC[C@H](N)C(=O)O | 0.13 K
44 | CN(c1ccc(F)cc1)S(=O)(=O)c1cccc(-c2nnnn2C)c1 | -0.09 K
45 | CC(=O)c1cccc(NC(=O)c2ccc(CCNS(C)(=O)=O)s2)c1 | -0.09 K
46 | NC(=O)c1ccc(COC(=O)c2ccccc2-c2ncc(-c3ccccc3)o2)cc1 | 0.03 K
47 | CCCN(CC)CCN | -0.11 K
48 | Cc1c(-c2ccccc2)oc2c(C(=O)OCC(=O)NC34CC5CC(CC(C5)C3)C4)cccc2c1=O | -0.02 K
49 | COc1ccc(CNCc2c[nH]nc2-c2ccc(C)cc2)cc1OC | -0.13 K
50 | NC(=S)c1ccc(C(=O)NCc2ccnc(OCC(F)(F)F)c2)cc1 | -0.11 K
51 | COc1ccc(NC(=O)COC(=O)c2ccccc2SCC(=O)NC23CC4CC(CC(C4)C2)C3)cc1OC | -0.08 K
52 | COc1ccc(C(=O)C2=C(O)C(=O)N(CCCN3CCOCC3)C2c2ccccc2F)cc1 (stereo not drawn) | -0.05 K
53 | COc1ccc(N(C)S(=O)(=O)c2cccc(C(=O)OCCCC(=O)c3ccc(F)cc3)c2)cc1 | 0.17 K
54 | O=C(CC(=O)N/N=C/c1ccc(O)cc1O)N/N=C/c1ccc(O)cc1O | 0.29 K
55 | CCOCC(C)N (stereo not drawn) | -0.11 K
